Structures can show the parent of a compound that is named as a salt. This is one part of the list. Repeats in this data set agree poorly, so a single value says little.
Test system: MDA-MB-468
Assay: phospho-S6 immunofluorescence (DAPI-normalised), per-plate z-score; higher = higher phospho-S6 signal (less pathway suppression)
Details: 24 h
Method: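 GPCR-targeted compound library (MedChemExpress HY-L006) tested on MDA-MB-468 PTEN-null TNBC cells in 384-well plates at 0.1, 1 or 10 uM, combined with vehicle, GDC0941 450 nM or lapatinib 1 uM, for 24 h. Phospho-S6 (S240/244) immunofluorescence normalised to DAPI and expressed as a per-plate z-score; values are the mean of biological triplicates.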

[1] = compound 0.1 µM, co-treatment: GDC0941 450 nM
[2] = compound 0.1 µM, co-treatment: lapatinib 1 uM
[3] = compound 0.1 µM, co-treatment: vehicle
[4] = compound 1 µM, co-treatment: GDC0941 450 nM
[5] = compound 1 µM, co-treatment: lapatinib 1 uM
[6] = compound 1 µM, co-treatment: vehicle
[7] = compound 10 µM, co-treatment: GDC0941 450 nM
[8] = compound 10 µM, co-treatment: lapatinib 1 uM
[9] = compound 10 µM, co-treatment: vehicle

| SMILES | phospho-S6 immunofluorescence (z-score) [1] | phospho-S6 immunofluorescence (z-score) [2] | phospho-S6 immunofluorescence (z-score) [3] | phospho-S6 immunofluorescence (z-score) [4] | phospho-S6 immunofluorescence (z-score) [5] | phospho-S6 immunofluorescence (z-score) [6] | phospho-S6 immunofluorescence (z-score) [7] | phospho-S6 immunofluorescence (z-score) [8] | phospho-S6 immunofluorescence (z-score) [9] |
| --- | --- | --- | --- | --- | --- | --- | --- | --- | --- |
| O=C(CCCN1CC=C(n2c(=O)[nH]c3ccccc32)CC1)c1ccc(F)cc1 [Droperidol] | -0.51 | 1.2 | 0.83 | -0.68 | -0.03 | 0.89 | -0.18 | 0.16 | 0.18 |
| CCCCC(=O)N(Cc1ccc(-c2ccccc2-c2nnn[nH]2)cc1)[C@H](C(=O)O)C(C)C.CCOC(=O)[C@H](C)C[C@@H](Cc1ccc(-c2ccccc2)cc1)NC(=O)CCC(=O)O | 1.2 | -0.78 | -1.08 | 1.05 | -0.42 | -0.07 | 0.23 | 0.37 | 0.21 |
| C=CCc1ccccc1OCC(O)CNC(C)C (stereo unspecified) [Alprenolol (hydrochloride)] | 1.89 | 0.78 | 0.5 | 0.25 | -0.42 | 0.43 | 0.45 | -0.09 | 1.12 |
| Cc1nc(C#Cc2cccnc2)cs1 [MTEP (hydrochloride)] | -0.39 | 0.83 | -1.45 | -1.01 | -0.05 | -0.34 | -0.31 | -0.65 | -0.75 |
| Cn1c(=O)c2nc[nH]c2n(C)c1=O [Theophylline] | 0.72 | 0.04 | 1.19 | -0.2 | 0.53 | 0.18 | 0.11 | 0.16 | 0.71 |
| N#Cc1cc(NC(=O)C(=O)O)c(Cl)c(NC(=O)C(=O)O)c1 [Lodoxamide] | 0.57 | 0.47 | 0.83 | 1.39 | -0.13 | 1.38 | 0.92 | 0.6 | 0.66 |
| O=C(c1ccc(F)cc1)C1CCN(CCn2c(=O)[nH]c3ccccc3c2=O)CC1 [Ketanserin (tartrate)] | 0.29 | 0.02 | 0.51 | 1.64 | 0.3 | -0.28 | 0.46 | -0.54 | 0.68 |
| O=C(Nc1cccc(Cl)c1)c1ccccn1 | 0.27 | 0.55 | -0.18 | -0.06 | 1.51 | -0.12 | -1.46 | 0.72 | -0.86 |
| COc1ccc2c(c1)c(CC(=O)N1CCOCC1)c(C)n2C(=O)c1ccc(Cl)cc1 | -1.07 | -1.07 | -0.01 | -3.57 | -2.27 | 0.03 | -3.35 | -6.12 | -6.12 |
| O=C(C[S+]([O-])Cc1ccco1)NC/C=C\COc1cc(CN2CCCCC2)ccn1 (stereo unspecified) [Lafutidine] | 0.76 | -0.25 | -0.22 | 0.37 | -0.3 | 0 | -0.67 | 0.02 | -0.32 |
| CC(=O)[C@H]1CC[C@H]2[C@@H]3CC=C4C[C@@H](O)CC[C@]4(C)[C@H]3CC[C@]12C [Pregnenolone] | 0.85 | 0.54 | 1.02 | 1.23 | -0.53 | 0.66 | 1.58 | 1.58 | 0.85 |
| Cc1cc2c(cc1Cl)N(C(=O)Nc1ccc(Oc3cccnc3C)nc1)CC2 | -0.28 | -1.35 | 0.37 | -0.48 | -3.04 | 0.09 | -3.98 | -5.09 | -1.44 |
| CCCCc1nc(C)c(CC(=S)N(C)C)c(=O)n1Cc1ccc(-c2ccccc2-c2nnn[nH]2)cc1 [Fimasartan] | 0.45 | 1.11 | 0.18 | -0.34 | 0.41 | -0.62 | 0.34 | 1.66 | -0.04 |
| C=CCN1CCc2nc(N)sc2CC1 | 0.29 | 0.9 | 0.6 | 0.72 | 0.75 | 0.68 | 0.68 | 0.22 | 0.33 |
| CN1[C@@H]2CC[C@H]1C[C@@H](OC(=O)c1c[nH]c3ccccc13)C2 [Tropisetron] | -0.46 | 0.03 | -0.5 | 0.32 | 0.72 | 0.77 | 0.73 | 1.44 | 0.31 |
| COC(=O)[C@H](c1ccccc1Cl)N1CCc2sccc2C1 [Clopidogrel (hydrogen sulfate)] | 0.51 | -0.73 | -0.82 | 0.41 | -0.02 | -0.45 | 0.58 | -1.03 | -0.92 |
| CC(C)OC(=O)N1CCC(Oc2ncnc3c2cnn3-c2ccc(S(C)(=O)=O)cc2F)CC1 | -0.12 | -0.36 | -0.37 | 0.32 | 0.05 | -0.48 | -0.32 | -0.15 | -0.38 |
| Clc1ccc2c(c1)N=C(N1CCNCC1)c1ccccc1N2 [N-Desmethylclozapine] | 0.23 | -0.53 | 0.43 | 1.18 | -0.13 | -0.15 | -0.56 | -3.16 | -0.88 |
| O=C(c1ccc(F)cc1)N1CCC[C@H](c2nc(-c3ccc(F)cc3)no2)C1 | -0.13 | -1.03 | -0.15 | -0.86 | -0.26 | 0.26 | -2.64 | -3.29 | -2.93 |
| C[C@H](NC(=O)C(C)(C)Oc1ccc(C(F)(F)F)cn1)[C@@H](Cc1ccc(Cl)cc1)c1cccc(C#N)c1 [Taranabant] | -1.46 | -0.74 | 0.3 | -4.43 | -3.1 | -0.6 | -4.19 | -2.35 | -2.4 |

10 entries from above, arranged by molecular weight, falling:

| SMILES | phospho-S6 immunofluorescence (z-score) [1] | phospho-S6 immunofluorescence (z-score) [2] | phospho-S6 immunofluorescence (z-score) [3] | phospho-S6 immunofluorescence (z-score) [4] | phospho-S6 immunofluorescence (z-score) [5] | phospho-S6 immunofluorescence (z-score) [6] | phospho-S6 immunofluorescence (z-score) [7] | phospho-S6 immunofluorescence (z-score) [8] | phospho-S6 immunofluorescence (z-score) [9] |
| --- | --- | --- | --- | --- | --- | --- | --- | --- | --- |
| C[C@H](NC(=O)C(C)(C)Oc1ccc(C(F)(F)F)cn1)[C@@H](Cc1ccc(Cl)cc1)c1cccc(C#N)c1 [Taranabant] | -1.46 | -0.74 | 0.3 | -4.43 | -3.1 | -0.6 | -4.19 | -2.35 | -2.4 |
| O=C(C[S+]([O-])Cc1ccco1)NC/C=C\COc1cc(CN2CCCCC2)ccn1 (stereo unspecified) [Lafutidine] | 0.76 | -0.25 | -0.22 | 0.37 | -0.3 | 0 | -0.67 | 0.02 | -0.32 |
| Cc1cc2c(cc1Cl)N(C(=O)Nc1ccc(Oc3cccnc3C)nc1)CC2 | -0.28 | -1.35 | 0.37 | -0.48 | -3.04 | 0.09 | -3.98 | -5.09 | -1.44 |
| O=C(CCCN1CC=C(n2c(=O)[nH]c3ccccc32)CC1)c1ccc(F)cc1 [Droperidol] | -0.51 | 1.2 | 0.83 | -0.68 | -0.03 | 0.89 | -0.18 | 0.16 | 0.18 |
| O=C(c1ccc(F)cc1)N1CCC[C@H](c2nc(-c3ccc(F)cc3)no2)C1 | -0.13 | -1.03 | -0.15 | -0.86 | -0.26 | 0.26 | -2.64 | -3.29 | -2.93 |
| COC(=O)[C@H](c1ccccc1Cl)N1CCc2sccc2C1 [Clopidogrel (hydrogen sulfate)] | 0.51 | -0.73 | -0.82 | 0.41 | -0.02 | -0.45 | 0.58 | -1.03 | -0.92 |
| CN1[C@@H]2CC[C@H]1C[C@@H](OC(=O)c1c[nH]c3ccccc13)C2 [Tropisetron] | -0.46 | 0.03 | -0.5 | 0.32 | 0.72 | 0.77 | 0.73 | 1.44 | 0.31 |
| C=CCc1ccccc1OCC(O)CNC(C)C (stereo unspecified) [Alprenolol (hydrochloride)] | 1.89 | 0.78 | 0.5 | 0.25 | -0.42 | 0.43 | 0.45 | -0.09 | 1.12 |
| C=CCN1CCc2nc(N)sc2CC1 | 0.29 | 0.9 | 0.6 | 0.72 | 0.75 | 0.68 | 0.68 | 0.22 | 0.33 |
| Cn1c(=O)c2nc[nH]c2n(C)c1=O [Theophylline] | 0.72 | 0.04 | 1.19 | -0.2 | 0.53 | 0.18 | 0.11 | 0.16 | 0.71 |

Remaining list, next part:

| SMILES | phospho-S6 immunofluorescence (z-score) [1] | phospho-S6 immunofluorescence (z-score) [2] | phospho-S6 immunofluorescence (z-score) [3] | phospho-S6 immunofluorescence (z-score) [4] | phospho-S6 immunofluorescence (z-score) [5] | phospho-S6 immunofluorescence (z-score) [6] | phospho-S6 immunofluorescence (z-score) [7] | phospho-S6 immunofluorescence (z-score) [8] | phospho-S6 immunofluorescence (z-score) [9] |
| --- | --- | --- | --- | --- | --- | --- | --- | --- | --- |
| O=C(O[C@@H]1C[C@@H]2C[C@H]3C[C@H](C1)N2CC3=O)c1c[nH]c2ccccc12 [Dolasetron (Mesylate hydrate)] | 1.12 | 1.19 | -0.26 | -0.17 | 0.3 | 0.13 | 0.52 | -0.24 | 0.62 |
| CCOc1nc2cccc(C(=O)O)c2n1Cc1ccc(-c2ccccc2-c2nnn[nH]2)cc1 [Candesartan] | 0.56 | -0.23 | 0.86 | 0.54 | 0.32 | 0.76 | 1 | 0.32 | 0.19 |
| CN1[C@@H]2CC[C@H]1C[C@@H](OC(=O)C(O)c1ccccc1)C2 (stereo partly specified) [Homatropine (Bromide)] | -0.17 | -1.24 | -0.6 | -1.09 | -0.61 | 0.28 | -0.26 | 0.08 | 0.37 |
| CC[C@H](NC(=O)c1c(C)c(-c2ccccc2)nc2ccccc12)c1ccccc1 | -0.97 | -0.8 | -0.49 | -1.97 | -2.56 | 0.14 | -4.55 | -3.25 | -1.64 |
| CC(=O)Nc1cccc2c1c(Sc1ccc(Cl)cc1)c(C)n2CC(=O)O | 0.21 | -0.61 | 0.2 | 0 | -0.5 | -0.32 | 0.52 | 0.08 | -0.17 |
| CC(C)COc1ccc(CNC(=O)N(Cc2ccc(F)cc2)C2CCN(C)CC2)cc1 [Pimavanserin tartrate] | -0.96 | -1.1 | -0.74 | 0.48 | -1.5 | 0.35 | -3.99 | -6.18 | -5.03 |
| CC[C@H](C)[C@H](NC(=O)[C@H](Cc1ccc(O)cc1)NC(=O)[C@@H]1CCCN1C(=O)[C@@H](NC(=O)[C@@H](N)CCCCN)[C@@H](C)CC)C(=O)N[C@@H](CC(C)C)C(=O)O [Neuromedin N] | -0.33 | -0.72 | -0.44 | -1.04 | -0.32 | -1.13 | 0.27 | -0.01 | -0.38 |
| Cc1ccc(Sc2ccccc2N2CCNCC2)c(C)c1 [Vortioxetine (hydrobromide)] | 0.31 | -0.73 | -0.99 | 0.02 | -1.59 | -0.71 | -5.79 | -11.4 | -9.37 |
| CC(O)Cn1cnc2c1c(=O)n(C)c(=O)n2C (stereo unspecified) [Proxyphylline] | -0.49 | 0.45 | -0.6 | -0.37 | -0.02 | -0.54 | 0.64 | 0.19 | -0.72 |
| C[C@H](N)[C@H](O)c1cccc(O)c1 [Metaraminol (tartrate)] | 2.37 | 0.17 | 1.27 | 0.96 | 0.07 | 1.27 | 0.64 | 0.89 | 0.73 |
| Nc1nc(-c2nn(Cc3ccccc3F)c3ncccc23)ncc1C1CC1 | -0.85 | 0.14 | -1.18 | 1.91 | 3.72 | -0.61 | 1.07 | 2.78 | -0.52 |
| CN1CCN(C2=Nc3ccccc3Oc3ccc(Cl)cc32)CC1 [Loxapine] | 1.82 | -0.11 | 0.59 | 0.76 | 0.8 | 1.66 | 0.6 | -0.55 | 0.95 |
| CCCCCN(CCCOC)C(=O)C(CCC(=O)O)NC(=O)c1ccc(Cl)c(Cl)c1 (stereo unspecified) [Loxiglumide] | 0.42 | 0.65 | 0.32 | 0.13 | -0.69 | -0.63 | 0.5 | 0.64 | 0.51 |
| CC(C(=O)Nc1cc(C#N)ccc1CCCC(=O)O)c1ccc(F)c2ccccc12 (stereo unspecified) | -1.79 | 0.46 | -0.89 | -1.12 | 0.52 | -0.88 | -3.03 | -2.8 | -0.03 |
| C=C[C@@]1(C)CC(=O)[C@]2(O)[C@@]3(C)[C@@H](O)CCC(C)(C)[C@@H]3[C@H](O)[C@H](OC(C)=O)[C@@]2(C)O1 [Forskolin] | 0.08 | -0.63 | -0.37 | 1.12 | 2.09 | 0.28 | 1.82 | 2.65 | 0.23 |
| C[C@](N)(Cc1ccc(O)c(O)c1)C(=O)O | 0.3 | -0.77 | 0.14 | 0.65 | -0.62 | 0.21 | -0.58 | 0.11 | -0.1 |
| CC1OC2(CS1)CN1CCC2CC1 (stereo unspecified) [Cevimeline (hydrochloride hemihydrate)] | 1.34 | 0.13 | 0.98 | 1.21 | 0.77 | 0.79 | 0.65 | -0.04 | 0.89 |
| CCCCC(C)(O)C/C=C/[C@H]1[C@H](O)CC(=O)[C@@H]1CCCCCCC(=O)OC (mixture of isomers) [Misoprostol] | 1.58 | 0.81 | 0.75 | 1.29 | 0.74 | 0.85 | 0.36 | 0.67 | 1.59 |
| C[C@H]1CN(C[C@H](Cc2ccccc2)C(=O)NCC(=O)O)CC[C@@]1(C)c1cccc(O)c1 [Alvimopan (dihydrate)] | -1.14 | 0.12 | -1.88 | -1.42 | -0.34 | -1.67 | -0.22 | 0.49 | -0.86 |
